Test: general procedure: Fmoc solid-phase peptide synthesis; PAC-PEG-PS; Pfp esters with HOBt, or HATU/DIPEA; HBTU/HOBt/DIPEA in solution
Conditions: whole synthesis, analytical RP-HPLC C18

## RWrw-OBzl
  final HPLC purity: 98%

Reference: patent US9115169B2 (Lytix Biopharma AS, priority 2000, dated 2015)
